## Primary screen of a compound library

Measurements from “University of Dundee, Small-Polar-MMV Screening Library” (2021), ChEMBL document CHEMBL3988442.

Mtb growth Cornell: 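Whole-cell assay for inhibitors of Mycobacterium tuberculosis growth, labelled Cornell in the record; the read-out is not stated. The concentration is filed as 10 mM, unlikely as a test dose, so the dose is not known. The record gives no direction; compounds strong in two other growth screens of this library score well above the rest, so higher reads as stronger inhibition. Of about 53,000 compounds tested this way, about 900 (1.7%) reached 50% or more in at least one test.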
Mtb heat-shock: 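Assay on Mycobacterium tuberculosis, filed only as a heat shock assay from Cornell; the read-out is not stated. The concentration is filed as 10 mM, unlikely as a test dose, so the dose is not known. The record gives no direction; compounds that gave an IC50 in retests scored well above the rest, so higher reads as stronger inhibition. Size under these conditions: about 69,000 compounds, about 930 of them at 50% or above in at least one test.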

Each number is a percent effect as filed. The record does not define 0% and 100%; most values in the screen are far below 50% and negative numbers occur (in some assays of this library far below -100). This is an unselected part of the compounds tested. A dash means the value is not listed here; it may have been measured.

| compound | Mtb growth Cornell | Mtb heat-shock |
|---|---|---|
| `CNC(=O)[C@@H]1CN(C(=O)COC)C[C@H]1c1ccnc(N2CCCC2)n1` | 50.96 | 2.66 |
| `CC(C)CN1C(=O)C2(CCN(Cc3nccs3)C2)c2ccccc21.O=C(O)C(F)(F)F` (stereo not shown) | 25.63 | 34.34 |
| `CCCc1nc(C)c(C(=O)NCCN2CCOCC2)s1` | - | -19.11 |
| `Cc1nnc2n1CCN(CCS(=O)(=O)c1ccc(Cl)cc1)C2` | - | -12.8 |
| `CCOC(C)c1nc(CN2CCC(CNC(C)=O)CC2)cs1` (stereo not shown) | - | -14.88 |
| `CSCCCN1CCCC1c1noc(C(C)C)n1` (stereo not shown) | - | -0.6553 |
| `Cc1nn(C)c2nc(N3CCNC(=O)C3Cc3ccccc3)sc12` (stereo not shown) | 19.8 | -1.5 |
| `Cc1nnc(C2CCN(C(=O)c3ccsc3)CC2)s1` | 13.06 | 4.93 |
| `COc1cccc(C(=O)NCC(c2cccn2C)N2CCCC2)c1OC` (stereo not shown) | - | -13.8 |
| `Cc1ccc(CNC(=O)c2nc3c(n2C)CCN(c2ncccn2)C3)o1` | -7.148 | 48.13 |
| `CN1CCc2[nH]cnc2C12CCN(C(=O)c1noc3c1CCCC3)CC2` | 27.03 | 37.81 |
| `CC(=O)c1cccc(NC(=O)Cn2cc(-c3ccccc3)ncc2=O)c1` | 20.8 | 19.15 |
| `O=C(O)C(F)(F)F.[H][C@@]12COC[C@]1(CNS(=O)(=O)C1CC1)CN(CCc1ccccc1)C2` | -15.08 | -23.69 |
| `COCc1ccccc1CNC(=O)CN1CCC2(CCOC2)C1` (stereo not shown) | -4.315 | -13.75 |
| `Cc1ccc(C(=O)NCCCS(C)(=O)=O)c(=O)[nH]1` | - | -19.48 |
| `O=C1CCCc2occ(C(=O)N3CCCC(O)(CO)C3)c21` (stereo not shown) | -8.132 | 31.79 |
| `CC(=O)N1CCN(C(=O)c2cnc(OC(C)C)c(Cl)c2)CC1` | -13.3 | 17.11 |
| `CN(C)c1ncc(I)c(C2CCCN2C)n1.Cl` (stereo not shown) | -1.683 | 12.53 |
| `Cc1n[nH]c(C)c1C1CCCN1C(=O)CNC(=O)C(C)(C)C` (stereo not shown) | -7.725 | 8.201 |
| `CN(Cc1ccco1)C(=O)CN1CCCC1Cn1cccn1` (stereo not shown) | -2.471 | 9.516 |
| `CCOCC(=O)N1CCC2(CC1)COC(COCc1ccccn1)C2.O=C(O)C(F)(F)F` (stereo not shown) | 5.928 | -31.79 |
| `CCOc1nn(CC)cc1-c1nnc(SCC)n1C` | 15.01 | -9.725 |
| `CCN1CCN(c2ccc(F)cc2C(C)NCc2ccccn2)CC1` (stereo not shown) | - | 2.081 |
| `COc1ccc(C(=O)C2CCCN(c3cc(C#N)ccn3)C2)cc1OC` (stereo not shown) | 2.178 | -14.48 |
| `O=c1[nH]c(CCN2CCCC2Cn2cccn2)nc2ccccc12` (stereo not shown) | - | 50.72 |
| `c1cnnc(N2CCCC(NCc3ccc(-n4cccn4)cc3)C2)c1` (stereo not shown) | - | 9.428 |
| `COCCN(Cc1sccc1C)C(=O)COc1ccccc1O` | -69.86 | -4.206 |
| `COCCN(C)C(=O)Nc1cc2c(cc1SC)OCCO2` | -7.957 | 1.015 |
| `O=C(O)C(F)(F)F.c1ccc(CN2CCCn3nnc(CNc4ncccn4)c3C2)nc1` | 3.594 | 11.56 |
| `CCc1ccsc1C(=O)N1CCCC(c2noc(C)n2)C1` (stereo not shown) | 27.86 | -26.43 |
| `COc1ccccc1COCC(O)CN1CC(n2cccn2)C1` (stereo not shown) | - | 26.4 |
| `CC(C)N(C)Cc1cnc2n1CCN(C(=O)Cc1ccccn1)C2.O=C(O)C(F)(F)F.O=C(O)C(F)(F)F` | - | -5.563 |
| `Cc1oc(CNC(=O)Cc2cccc(OC(F)F)c2)cc1C(=O)O` | 20.24 | -30.62 |
| `CNS(=O)(=O)c1cccc(CNc2ncccn2)c1` | - | -8.536 |
| `Cc1cccc(-c2nc(C)nn2CC(=O)NC2CCCC2)c1` | -39.1 | 3.267 |
| `CC(c1ccc(S(N)(=O)=O)cc1)N(C)C(=O)c1ccccc1I` (stereo not shown) | -1.193 | -25.2 |
| `COCC1CCN(S(=O)(=O)N2C[C@@H](C)[C@](O)(C3CC3)C2)CC1` | 10.18 | -4.208 |
| `CNC(=O)c1cn2cc(-c3ccc(F)cc3)n(CC=C(C)C)c(=O)c2n1` | - | -15.47 |
| `O=C1NCCCC12CCN(S(=O)(=O)N1CCOCC1)C2` (stereo not shown) | -16.4 | -2.517 |
| `Cn1nc(C2CCNCC2)c2c(C(=O)NC3CC3)cc(C3CC3)nc21` | - | -38.3 |
| `O=C(NCc1ccccn1)NCc1ccc(Cl)s1` | - | -28.42 |
| `CCCC(O)CNc1cncc(Br)c1` (stereo not shown) | - | 5.719 |
| `COCC1CN(Cc2c(C)noc2C)Cc2cn(C)nc21` (stereo not shown) | -13.09 | -45 |
| `Cc1csc(C(C)(C)NCCCS(C)(=O)=O)n1` | - | -10.98 |
| `COCC1CN(Cc2ccc3c(c2)OCO3)Cc2ncn(C)c21.O=C(O)C(F)(F)F.O=C(O)C(F)(F)F` (stereo not shown) | - | -21.56 |
| `CC(C)(C)NC(=O)C[C@@H]1CCNC[C@@H]1Cc1cc(C(C)(C)C)on1` | -8.063 | 8.804 |
| `c1cncc(-c2nnc([C@H]3CCN(CC4CC4)C3)o2)c1` | - | -15.78 |
| `COC(=O)CNC(=O)N1CCN(c2nc3ccccc3n2C)CC1` | -2.146 | -10.64 |
| `[H][C@@]12CCN(C(=O)C3CCCC3)[C@]1([H])C(=O)N(c1ccc(F)cc1)C(=O)N2` | - | 7.508 |
| `Cc1cc(C)c(CNC(=O)N2CCN(c3ccccn3)CC2)c(=O)[nH]1` | - | -26.41 |
| `Cn1cc(-c2cnc(N3CCCC3)nc2)cc1C(=O)O` | 95.84 | 7.964 |
| `Cc1nc2n(n1)CC(NCCCc1nc(-c3cccs3)no1)CC2` (stereo not shown) | 46 | 19.28 |
| `CCOc1ncccc1NC(=O)c1cc(C)c(C)s1` | 9.963 | 5.004 |
| `CC(=O)c1ccc(CN2CC(Oc3ccccc3C)C2)cc1` | 33.59 | -0.08247 |
| `CNC(=O)N1CCC2(CC1)CN(C(C)C)Cc1cc(F)ccc12.Cl` | 15.65 | 3.474 |
| `Cc1ccc(CN(C(=O)NCCNC(=O)c2cccnc2)C(C)C)o1` | -14.04 | -12.97 |
| `OCCNc1cc(-c2nccnc2N2CCCC2)c2cc[nH]c2n1` | -48.42 | -13.32 |
| `CN(Cc1cnn(C)c1)S(=O)(=O)N1CCCCCC1` | -11.35 | 42.2 |
| `Cc1cccc(-c2noc([C@@H]3C[C@@H](O)CN3Cc3ccc(CO)o3)n2)c1` | 9.389 | -28.56 |
| `Cc1ccccc1C(C#N)NC(=O)CCCOc1cccnc1` (stereo not shown) | 10.54 | 5.239 |
| `Cn1nc(CNC(=O)CC#N)c2c1CN(C(N)=O)CC2` | -16.87 | -18.05 |
| `O[C@H]1COCCN(Cc2cccc3c2OCO3)C1` | -2.27 | -6.314 |
| `O=C(O)COc1ccc(CN2CCCC(CCc3ccccc3)C2)cc1` (stereo not shown) | - | -25.32 |
| `c1cc(-c2c[nH]c([C@@H]3COCCN3C3CCOCC3)n2)ccn1` | -4.999 | -12.79 |
| `Cc1cnn(CC(=O)N2CCC3(CCC(=O)N(CC(C)O)C3)CC2)c1` (stereo not shown) | - | -18.55 |
| `COCCn1cc(NC(=O)NC(C)CCc2ccccc2)ccc1=O` (stereo not shown) | 12.47 | 7.525 |
| `CCN1CCC(NC(=O)CN2CCCC(NS(C)(=O)=O)C2)CC1` (stereo not shown) | -21.02 | -8.475 |
| `O=C(Cn1ncc2ccccc21)Nc1ccnn1CC1CCOC1` (stereo not shown) | -7.219 | -0.6095 |
| `CN(C)[C@@H]1CCN(c2ncc(F)cn2)[C@H]1Cc1ccncc1.O=C(O)C(F)(F)F.O=C(O)C(F)(F)F` | 17.56 | -23.16 |
| `CCC(=O)N1CCC(c2nc(N3CCCC3)ncc2S(C)(=O)=O)CC1` | -19.63 | -24.8 |
| `NC(=O)c1ccc(N2CCN(Cc3cccc4nsnc34)CC2)nc1` | 33.94 | -26.83 |
| `O=S(=O)(NC1CCCCC12OCCO2)c1cc(F)cc(F)c1` (stereo not shown) | 56.69 | 5.691 |
| `Cc1noc(C)c1-c1ccc(C2CCCN2CCC(N)=O)nc1` (stereo not shown) | -8.566 | -11.84 |
| `COC1CCN(S(=O)(=O)N2CCCC(c3cccc(C(=O)O)c3)C2)CC1` (stereo not shown) | - | 3.64 |
| `CCCN1CCCn2nc(CNS(=O)(=O)c3ccc(C)cc3)cc2C1` | 4.289 | -0.4811 |
| `CN(Cc1ncc[nH]1)CC1CCOc2ccccc2C1` (stereo not shown) | -5.707 | 9.12 |
| `CN(C)C1COC2(CCN(C(=O)c3cccc(Cl)c3)CC2)C1.O=C(O)C(F)(F)F` (stereo not shown) | - | 2.47 |
| `[H][C@@]12CO[C@@H](CNS(C)(=O)=O)[C@]1([H])CCN(C(=O)c1ccoc1C)C2` | 17.42 | -50.98 |
| `Cc1ccc(NC2CCN(C(=O)CC3CCCO3)CC2)nn1` (stereo not shown) | 5.651 | 8.51 |

The last 5 entries again:

- CCCN1CCCn2nc(CNS(=O)(=O)c3ccc(C)cc3)cc2C1 : Mtb growth Cornell: 4.289%; Mtb heat-shock: -0.4811%
- CN(Cc1ncc[nH]1)CC1CCOc2ccccc2C1 (stereo not shown) : Mtb growth Cornell: -5.707%; Mtb heat-shock: 9.12%
- CN(C)C1COC2(CCN(C(=O)c3cccc(Cl)c3)CC2)C1.O=C(O)C(F)(F)F (stereo not shown) : Mtb heat-shock: 2.47%
- [H][C@@]12CO[C@@H](CNS(C)(=O)=O)[C@]1([H])CCN(C(=O)c1ccoc1C)C2 : Mtb growth Cornell: 17.42%; Mtb heat-shock: -50.98%
- Cc1ccc(NC2CCN(C(=O)CC3CCCO3)CC2)nn1 (stereo not shown) : Mtb growth Cornell: 5.651%; Mtb heat-shock: 8.51%